For at least one compound, name, drawing or mass did not settle the structure.
Tests used:
LS857 cells = experiment: Differentiation of primary liposarcoma cell strain LS857 (lipid accumulation, morphology); assay type: cell-based, human; conditions: 7 days, 5 μM thiazolidinedione (BRL 49653 or pioglitazone), 50 nM LG268, stained after four more days
[1] = test system: primary cells isolated from three human liposarcomas; experiment: Differentiation of primary human liposarcoma cells (LS857, LS175, LS707); assay type: cell-based; conditions: primary liposarcoma cell strains, 7 days treatment
[2] = test system: aP2 and adipsin mRNA in LS857 cells; experiment: Northern blotting of adipocyte-specific markers aP2 and adipsin in LS857 cells; assay type: cell-based, human
[3] = test system: LM203 leiomyosarcoma cells; experiment: Lipid accumulation in primary leiomyosarcoma cell line LM203 (control, no PPARγ); assay type: cell-based; conditions: 10 μM pioglitazone, 7 days

Structure (SMILES) | lipid accumulation, oil red O, macroscopic view (LS857 cells) | induction of differentiation / lipid accumulation [1] | induction of mRNAs encoding aP2 and adipsin [2] | lipid accumulation [3]
CN(CCOc1ccc(CC2SC(=O)NC2=O)cc1)c1ccccn1 (stereo not shown) [BRL49653] | significant lipid accumulation | Induction of differentiation was also observed | – | –
Cc1c(C)c2c(c(C)c1O)CCC(C)(COc1ccc(CC3SC(=O)NC3=O)cc1)O2 (stereo not shown) [troglitazone] | – | Induction of differentiation was also observed | – | –
CCc1ccc(CCOc2ccc(CC3SC(=O)NC3=O)cc2)nc1 (stereo not shown) [pioglitazone] | significant lipid accumulation | readily accumulated lipid | leads to the induction | No lipid accumulation

Reference: patent US6646008B1, “Treatment of disease states which result from neoplastic cell proliferation using PPAR-γ activators and compositions useful therefor” (The Salk Institute for Biological Studies, priority 1996, dated 2003)
